{
  "source": "patent US9381203B2",
  "about": "“Combination therapies for treatment of laminopathies, cellular aging, and atherosclerosis” (priority 2013, dated 2016)",
  "origin": "cited, not measured here",
  "test_system": "HGPS fibroblasts",
  "settings": "cited from earlier work",
  "note": "For at least one compound, name, drawing or mass did not settle the structure.",
  "data": [
    {"smiles": "CO[C@H]1C[C@@H]2CC[C@@H](C)[C@@](O)(O2)C(=O)C(=O)N2CCCC[C@H]2C(=O)O[C@H]([C@H](C)C[C@@H]2CC[C@@H](O)[C@H](OC)C2)CC(=O)[C@H](C)/C=C(\\C)[C@@H](O)[C@@H](OC)C(=O)[C@H](C)C[C@H](C)/C=C/C=C/C=C/1C", "note": "[rapamycin]", "values": [
      {"measurement": "Hallmark phenotypes of HGPS fibroblasts", "setting": "HGPS fibroblasts", "result": "inhibited several hallmark phenotypes"},
      {"measurement": "Progerin degradation and clearance", "setting": "both HGPS and normal cells", "result": "enhanced progerin degradation and clearance"}
    ]}
  ]
}
